In patent publication US20260265394A1 (CARTESIAN THERAPEUTICS, published 2026):
Numbering of substitutions follows the chain as printed.

Biological target: T1, allophycocyanin (APC)-conjugated BCMA (Recombinant Human TNFRSF17 protein, Fc-tagged, APC labeled); Creative … (human, UniProt Q02223 1-54, allophycocyanin (APC) conjugated)
T1 construct: Bought reagent, used at 0.4 ug/mL to stain CAR T cells; also called BCMA-APC; recombinant BCMA-APC; not shown: Fc tag
T1 sequence (looked up): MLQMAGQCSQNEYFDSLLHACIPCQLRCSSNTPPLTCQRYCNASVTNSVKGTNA
Assay: flow cytometry, CAR T cells stained with BCMA-APC
Protocol: CAR T cells obtained from the above-described process were tested for viability, CAR protein expression, BCMA binding, cytotoxicity, i.e., the ability to kill BCMA+ myeloma (tumor) cells, and cytokine production. Resistance of the CAR protein to downregulation was tested by incubation of CAR T cells with, or without, BCMA+ myeloma cells, followed by analysis of CAR expression. Viability, CAR expression, and BCMA binding were determined by flow cytometry on a Guava® EasyCyte® 12HT Flow cytometer (Luminex). To test viability, a sample of the CAR T cells was mixed with propidium iodide and acridine orange and analyzed by fluorescence microscopy using a Nexcelom Auto 2000 cytometer. To test CAR protein expression and BCMA binding, a sample of the CAR T cells was incubated with 0.4 μg/mL of allophycocyanin (APC)-conjugated BCMA (Recombinant Human TNFRSF17 protein, Fc-tagged, APC labeled; Creative Biomart, Shirley, NY). CAR expression was assessed on the flow cytometer with electronic gating on fluorescence in the red channel to detect presence or absence of emission from BCMA-APC on CAR-positive and CAR-negative cells. BCMA binding was determined by measuring the intensity of fluorescence in the red channel to determine the relative quantity of BCMA-APC bound to labelled CAR-positive cells. For the viability, expression, cytotoxicity, cytokine production and BCMA binding assays, control (non-CAR) CD8+ T cells generated by electroporation without IVT mRNA were tested as a parallel control.

B1: Anti-BCMA CAR containing K-A CD3z only (SEQ ID NO: 3) (receptor)
chain: DIVLTQSPASLAVSPGQRATITCRASESVTILGSHLIHWYQQKPGQPPKLLINLASNVNTGVPARFSGSGSGTDFTLTISSVEPEDTANYYCLQSRTLPRTFGQGTKVEIKGSTSGSGKPGSGEGSTKGQIQLVQSGPELKKPGGSVKISCKASGYTFTDYSINWVRQAPGKGLEWVGWINTETREPAYAYDFRGRFTFSADTSKSMAYLQINSLRAEDTAVYYCALDYTYGMDYWGQGTLVTVSSFVPVFLPAKPTTTPAPRPPTPAPTIASQPLSLRPEACRPAAGGAVHTRGLDFACDIYIWAPLAGTCGVLLLSLVITLYCNHRNRVAFSRSADAPAYQQGQNQLYNELNLGRREEYDVLDARRGRDPEMGGAPQRRANPQEGLYNELQADAMAEAYSEIGMAGERRRGAGHDGLYQGLSTATADTYDALHMQALPPR
notes: Chimeric antigen receptor on human CD8+ T cells; also called K-A CAR
binding result: binds

B2: Anti-BCMA CAR containing K-D CD3z only (SEQ ID NO: 4) (receptor)
chain: B1 chain with A332D, A366D, A377D, A382D, A394D, A396D, A407D, A414D, A428D
notes: Chimeric antigen receptor on human CD8+ T cells; also called K-D CAR
binding result: binds

B3: Anti-BCMA CAR containing K-E CD3z only (SEQ ID NO: 5) (receptor)
chain: B1 chain with A332E, A366E, A377E, A382E, A394E, A396E, A407E, A414E, A428E
notes: Chimeric antigen receptor on human CD8+ T cells; also called K-E CAR
binding result: binds

B4: Anti-BCMA CAR containing K-R CD3z only (SEQ ID NO: 2) (receptor)
chain: B1 chain with A332R, A366R, A377R, A382R, A394R, A396R, A407R, A414R, A428R
notes: Chimeric antigen receptor on human CD8+ T cells; also called K-R CAR
binding result: binds
